From PubChem BioAssay AID488840 (Broad Institute, 2010) come the findings set out here.

Chains of the proteins cited; added tags and fusions are not shown. Lines headed by an entry give the natural chain unless they say otherwise; changes in a name come on top.
UniProt O75164: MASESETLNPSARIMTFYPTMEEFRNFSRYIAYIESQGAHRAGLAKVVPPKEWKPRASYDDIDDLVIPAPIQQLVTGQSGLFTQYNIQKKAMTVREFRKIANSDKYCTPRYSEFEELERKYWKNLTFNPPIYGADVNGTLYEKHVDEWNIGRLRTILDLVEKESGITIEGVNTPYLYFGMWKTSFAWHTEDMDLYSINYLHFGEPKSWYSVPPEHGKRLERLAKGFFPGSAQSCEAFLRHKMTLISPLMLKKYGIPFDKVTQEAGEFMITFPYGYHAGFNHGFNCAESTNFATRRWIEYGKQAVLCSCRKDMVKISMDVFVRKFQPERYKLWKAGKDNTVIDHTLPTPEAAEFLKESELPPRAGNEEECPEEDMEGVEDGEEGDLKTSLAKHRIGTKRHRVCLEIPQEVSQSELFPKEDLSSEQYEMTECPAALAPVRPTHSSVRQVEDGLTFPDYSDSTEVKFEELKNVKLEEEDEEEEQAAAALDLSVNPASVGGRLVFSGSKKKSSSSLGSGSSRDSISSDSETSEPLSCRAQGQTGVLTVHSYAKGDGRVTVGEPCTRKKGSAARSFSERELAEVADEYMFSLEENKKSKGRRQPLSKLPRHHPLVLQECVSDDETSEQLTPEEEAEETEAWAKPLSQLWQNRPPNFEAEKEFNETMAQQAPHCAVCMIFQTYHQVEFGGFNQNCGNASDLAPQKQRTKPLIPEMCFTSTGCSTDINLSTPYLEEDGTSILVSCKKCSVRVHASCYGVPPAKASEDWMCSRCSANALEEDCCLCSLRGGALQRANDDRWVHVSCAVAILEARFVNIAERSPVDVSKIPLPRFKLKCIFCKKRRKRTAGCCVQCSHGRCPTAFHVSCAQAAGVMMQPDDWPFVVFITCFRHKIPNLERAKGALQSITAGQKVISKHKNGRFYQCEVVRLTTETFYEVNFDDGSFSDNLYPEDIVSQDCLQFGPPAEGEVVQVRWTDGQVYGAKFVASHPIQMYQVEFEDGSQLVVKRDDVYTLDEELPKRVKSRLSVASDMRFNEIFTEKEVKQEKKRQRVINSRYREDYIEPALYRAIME

About 45 (3%) of roughly 1,400 compounds were called active.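 How the source made its calls: active means half-maximal dose of signal decrease from fit no higher than ten times the top valid tested dose; inconclusive means fit invalid, or curve flat with 30 to 70% inhibition; inactive means the rest.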 The list shows a part of the results. Potency and affinity values are given separately.

This test deals with Lysine-specific demethylase 4A (Homo sapiens) (UniProt O75164). In words: inhibition of JMJD2A H3K9me3 demethylation – biochemical, DELFIA europium, cherry-picked samples, selectivity assay for GASC-1 inhibitor project, dose response (AID 488840).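 Further: europium signal reports the dimethyl H3K9 product detected by antibody so inhibitors lower it; 0% = median of neutral control wells and -100% = median of positive control wells.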 To be noted: GST-JMJD2A(1-420) H3K9me3 demethylation; at 6 µM (top of the series) unless noted.
As for `Cc1ccc(S(=O)(=O)NCCC(=O)N2CCN(c3cccc(Cl)c3)CC2)cc1C`, the activity change, negative = inhibition is inactive: -0.299%.

For the compound `COC(=O)c1sc(NC(=O)c2cc3c(s2)CCCC3)nc1C`, the activity change, negative = inhibition is inactive: 2.35%.

For the compound `CCNc1ccc(S(=O)(=O)N(C)C)cc1NCC(=O)Nc1c(F)cccc1F`, the activity change, negative = inhibition was inactive: 2.81%.

In the case of `CN(C)c1ccc(NC(=S)c2ccccn2)cc1`, the activity change, negative = inhibition is inactive: 0.977%.

For the compound `CCSc1nnc(-c2cccc(S(=O)(=O)N(CC)CC)c2)n1Cc1ccccc1`, the activity change, negative = inhibition was inactive: -3.54%.

As for `Cc1nc2sc(C(c3cccc(F)c3)N3CCOCC3)c(O)n2n1` (stereo not given), the activity change, negative = inhibition was inactive: 4.91%.

Take `O=C(NNC(=O)c1cccs1)c1ccc([N+](=O)[O-])cc1`: the activity change, negative = inhibition is inactive: -5.67%.

Turning to `Nc1ccc2oc(-c3ccccn3)nc2c1`, the activity change, negative = inhibition is inactive: 0.514%.

With `O=C(Cc1ccccc1)NC1(O)C(=O)c2ccccc2C1=O`, the activity change, negative = inhibition is inactive: -4.47%.

In the case of `CN1CCN(CC(=O)Nc2ccc(S(=O)(=O)N(C)C)cc2)CC1`, the activity change, negative = inhibition was inactive: 5.36%.

In the case of `CCCCOC(=O)Cn1cnc2ccc(Br)cc2c1=O`, the activity change, negative = inhibition is inactive: -0.0666%.

`O=C(N/N=C/c1ccc(O)cc1)c1cncc(Br)c1`: the activity change, negative = inhibition was inactive: -5.25%.

In the case of `COC(=O)c1cccc(C#CC(NP(=O)(c2ccccc2)c2ccccc2)c2ccccc2)c1` (stereo not given), the activity change, negative = inhibition was inactive: 3.94%.

On to `Cc1nn(-c2cccc(C(=O)O)c2)c(C)c1Oc1ccccc1O`, for which the activity change, negative = inhibition was inactive: -1.43%.

`CCN(C[C@H]1N[C@@](CC)(C(=O)OC)[C@H]2C(=O)N(Cc3ccccc3)C(=O)[C@@H]12)S(=O)(=O)c1ccc(C(C)(C)C)cc1`: the activity change, negative = inhibition is inactive: -0.818%.

Regarding `COc1ccc(/C=N/N(C)c2cc(=O)n(C)c(=O)[nH]2)cc1OC`, the activity change, negative = inhibition is inactive: 8.31%.

Turning to `CC1CN(Cc2c(O)ccc3c2oc(=O)c2ccccc23)CC(C)O1` (stereo not given), the activity change, negative = inhibition was inactive: -17%.

On to `CC(C)NC(=O)Nc1ccc2c(c1)C(=O)N([C@H](C)CO)C[C@@H](C)[C@@H](CN(C)C(=O)NC1CCCCC1)O2`, for which the activity change, negative = inhibition is inactive: 0.568%.

Consider `CCOC(=O)Nc1cc(C)c(Cl)cc1OC`, for which the activity change, negative = inhibition was inactive: -3.4%.

On to `NC(=O)C1CCN(c2nc(-c3ccccc3Br)cs2)CC1`, for which the activity change, negative = inhibition is inactive: -1.18%.

On to `COC(=O)c1ccc(-c2sc3nc(N4CCOCC4)c4c(c3c2N)CC(C)(C)OC4)o1`, for which the activity change, negative = inhibition was inactive: -5.55%.

Regarding `CCc1ncc(C)[nH]1`, the activity change, negative = inhibition is inactive: -14.1%.

As to `Cn1nc(N)nc1N1CCN(c2ccc(F)cc2)CC1`, the activity change, negative = inhibition is inactive: 0.469%.

Regarding `Cc1noc(C)c1NC(=O)N(C)C[C@H]1Oc2ccc(NS(=O)(=O)c3ccccc3)cc2C(=O)N([C@H](C)CO)C[C@@H]1C`, the activity change, negative = inhibition is inactive: 9.15%.

`Cc1ccc(CNC(=O)[C@@H](NC(=O)Cc2ccccc2)C(C)C)cc1`: the activity change, negative = inhibition is inactive: 2.23%.

For the compound `COc1ccccc1CCNC(=O)c1ccc(C)o1`, the activity change, negative = inhibition is inactive: -2.2%.

For `O=C(Nc1nc2ccccc2n1CCN1CCCC1)C1CCCCC1`, the activity change, negative = inhibition was inactive: 5.58%.

Take `CCOC(=O)c1cc2n(n1)C(C(F)(F)F)CC(C)N2` (stereo not given): the activity change, negative = inhibition was inactive: 7.37%.

For `Nc1c(C(=O)OCC2CCCO2)c2nc3ccccc3nc2n1C1CCCC1` (stereo not given), the activity change, negative = inhibition was inactive: 0.956%.

On to `CCN(C[C@H]1N[C@@](C)(C(=O)OC)[C@H]2C(=O)N(C)C(=O)[C@@H]12)C(=O)Nc1ccccc1`, for which the activity change, negative = inhibition is inactive: 3.6%.

Turning to `O=C(Cn1c(NCCCO)nc2ccccc21)c1ccc(Br)cc1`, the activity change, negative = inhibition was inactive: -8.01%.

Take `O=C(NCc1nnc(SCC(=O)N2CCCC2)o1)c1c(F)cccc1Cl`: the activity change, negative = inhibition was inactive: 1.02%.

As to `CCOc1ccccc1Nc1ncnc2ccccc12`, the activity change, negative = inhibition was inactive: 0.0723%.

Regarding `CCOC(=O)c1sc(Nc2nc(OC)cc(OC)n2)nc1C`, the activity change, negative = inhibition was inactive: 2.08%.

In the case of `CCOc1ccc2nc(NC(=O)CS(=O)(=O)c3ccc(C)cc3)sc2c1`, the activity change, negative = inhibition was inactive: 3.31%.

In the case of `COc1cc(Cl)c(NC2=CC(=O)C(=O)c3ccccc32)c(OC)c1`, the activity change, negative = inhibition was inactive: 1.31%.

Consider `CC(C)(O)[C@H](O)Cc1cc2ccc(=O)oc2cc1O[C@@H]1O[C@H](CO)[C@@H](O)[C@H](O)[C@H]1O`, for which the activity change, negative = inhibition is inactive: -0.509%.

For `COc1ccc(/C=C/C(=O)OCC(=O)c2ccc[nH]2)cc1`, the activity change, negative = inhibition is inactive: -3.39%.

As for `O=C(NC1CC2CCC1C2)C1COc2ccccc2O1` (stereo not given), the activity change, negative = inhibition was inactive: -5.22%.

Regarding `COc1ccc(NC(=S)NNC(=O)c2ccc(S(=O)(=O)N3CCOCC3)cc2)cc1`, the activity change, negative = inhibition is inactive: 1.42%.

On to `CC(=O)C[C@@H](O)CC(=O)[C@H]1OC(=O)CCCCCc2ccccc21`, for which the activity change, negative = inhibition was inactive: -3.43%.

Turning to `O=S(=O)(Nc1ccccc1F)c1cccc(NC(=S)NCCN2CCOCC2)c1`, the activity change, negative = inhibition is inactive: -1.8%.

`COc1ccc2cc3cc(C(=O)N4CCN(C5CCCCC5)CC4)oc3nc2c1`: the activity change, negative = inhibition is inactive: 0.0255%.

Take `COc1ccc(CCNC(=O)c2ccccc2Cl)cc1OC`: the activity change, negative = inhibition is inactive: 0.305%.

As for `O=C(C1CCC1)N(CCc1ccccc1)Cc1nc2ccccc2c(=O)[nH]1`, the activity change, negative = inhibition was inactive: 0.0474%.

For the compound `Cc1ccc(C2=[N+]([O-])C(C)(C)CC2)cc1`, the activity change, negative = inhibition was inactive: -3.27%.

Take `NC(=O)C1CCN(C(=O)CCSc2ccccc2)CC1`: the activity change, negative = inhibition is inactive: 1.41%.

With `O=C(NCc1cccc(Cl)c1)c1ccc2c(c1)OCO2`, the activity change, negative = inhibition is inactive: 3.27%.

Consider `COc1ccc(/C(O)=C/Sc2nnc(Cc3ccccc3)o2)cc1`, for which the activity change, negative = inhibition is inactive: 4.63%.

`O=C(NNC(=O)C1CCN(S(=O)(=O)c2ccccc2)CC1)c1ccccc1O`: the activity change, negative = inhibition was inactive: 0.221%.

As to `Cc1cccc(NC(=S)N2CCN(Cc3ccc4c(c3)OCO4)CC2)c1C`, the activity change, negative = inhibition was inactive: -13%.

In the case of `CCOc1ccc(C(=S)NC2CCCCC2)cc1`, the activity change, negative = inhibition was inactive: -4.07%.

With `Cc1cc2ccccn2c1C(=O)c1ccncc1`, the activity change, negative = inhibition is inactive: 7.29%.

In the case of `O=c1ccc2cc3c([nH]c4ccc(Br)cc43)oc-2c1O`, the activity change, negative = inhibition was inactive: -19.4%.

In the case of `CC(C)(C)c1ccc(C(=O)OCc2c(-c3ccccc3)ncc3ccccc23)cc1`, the activity change, negative = inhibition was inactive: 0.675%.

With `Cc1ccc(Cl)cc1N1CCN(C(=O)c2ccc(NS(=O)(=O)c3c(C)noc3C)cc2)CC1`, the activity change, negative = inhibition was inactive: -2.15%.

Turning to `CCN(CC)C(=O)C1c2ccccc2Oc2ccccc21`, the activity change, negative = inhibition is inactive: -6.17%.

In the case of `O=C1c2ccccc2C(=O)C12OC2c1cccc2ccccc12` (stereo not given), the activity change, negative = inhibition was inactive: -10.6%.

`CCn1c(CNC(=O)Cc2ccc(OC)cc2)nnc1SCC(=O)NC1CCCCC1`: the activity change, negative = inhibition was inactive: -4.8%.

With `O=C(CSc1nnc(CNC(=O)c2c(F)cccc2Cl)o1)Nc1ccc2c(c1)OCCO2`, the activity change, negative = inhibition is inactive: 0.72%.

Consider `Cc1ccc(C(c2sc3nc(C)nn3c2O)N2CCN(c3ccccc3F)CC2)cc1` (stereo not given), for which the activity change, negative = inhibition is inactive: -3.81%.

Take `N/C(=N\S(=O)(=O)c1cc(C(F)(F)F)cc(C(F)(F)F)c1)c1ccccc1`: the activity change, negative = inhibition was inactive: -1.03%.

Regarding `CC1CCN(C(=S)NC(=O)c2cccc([N+](=O)[O-])c2)CC1`, the activity change, negative = inhibition was inactive: -0.366%.

Consider `COc1ccc(NC(=O)N(C)C[C@H]2Oc3c(NC(=O)C4CC4)cccc3C(=O)N([C@H](C)CO)C[C@@H]2C)cc1`, for which the activity change, negative = inhibition was inactive: 3.75%.

In the case of `CC(C)C[C@@H]1CN=C(N)N1C[C@@H]1CCCN1C[C@H](C)N1C[C@@H](Cc2ccccc2)N(CCc2ccc(Cl)c(Cl)c2)C1=N`, the activity change, negative = inhibition is inactive: 25.9%.

With `Cc1noc(C)c1S(=O)(=O)N(C)C[C@H]1Oc2c(NC(=O)Nc3ccccc3)cccc2C(=O)N([C@H](C)CO)C[C@@H]1C`, the activity change, negative = inhibition is inactive: 3.34%.

For the compound `Cc1ccc(Nc2nnc(SCC(=O)N(C)C3CCS(=O)(=O)C3)s2)cc1` (stereo not given), the activity change, negative = inhibition is inactive: 3.34%.

In the case of `Cc1ccc(-c2csc3nc4cc(C(=O)NC5CCC(O)CC5)ccc4c(=O)n23)cc1` (stereo not given), the activity change, negative = inhibition was inactive: -4.49%.

On to `COc1ccc(CCNC(=O)CSCc2n[nH]c(=O)[nH]2)cc1OC`, for which the activity change, negative = inhibition is inactive: -4.25%.

Consider `O=C1NCCC/C1=N/Nc1ccc(F)cc1`, for which the activity change, negative = inhibition was inactive: 0.703%.

As to `COc1ccc(OC)c(/C=C2\SC(=S)N(Cc3cccnc3)C2=O)c1`, the activity change, negative = inhibition was inactive: 0.643%.

As for `Cc1cc(=O)[nH]c(CN2CCOCC2)n1`, the activity change, negative = inhibition was inactive: 0.421%.

As for `Cc1ccc(C(=O)Nc2sc3c(c2C(=O)O)CCCC3)o1`, the activity change, negative = inhibition is inactive: 0.458%.

Regarding `COc1ccc(/C(C)=N/Nc2nccnc2Cl)cc1`, the activity change, negative = inhibition is inactive: 1.18%.

As to `Cc1cccc(NS(=O)(=O)c2cccc3nsnc23)c1`, the activity change, negative = inhibition is inactive: 1.62%.

For `C[C@H](CO)N1C[C@H](C)[C@@H](CN(C)S(=O)(=O)c2ccccc2)Oc2c(NC(=O)CCC(F)(F)F)cccc2C1=O`, the activity change, negative = inhibition is inactive: -0.45%.

`CN(C(=O)COc1ccccc1)c1nnc(-c2ccncc2)s1`: the activity change, negative = inhibition is inactive: -1.74%.

As to `O=c1ccc(=O)n2n1CC(O)C2`, the activity change, negative = inhibition is inactive: 2.05%.

In the case of `C#CCOCCOCCOCCNc1nc(N2CCN(C(=O)[C@H](CCC(=O)O)n3cc([C@@H](N)CCCCN)nn3)CC2)nc(N2CCN(C(=O)[C@H](CCC(=O)O)n3cc([C@@H](N)CCCCN)nn3)CC2)n1`, the activity change, negative = inhibition is inactive: 2.24%.

Regarding `CN(c1cccc(Cl)c1)S(=O)(=O)c1cccc(C(=O)Nc2ccc3c(c2)CCC3)c1`, the activity change, negative = inhibition is inactive: 8.71%.

In the case of `C=CCNC(=O)c1ccc(S(=O)(=O)CC)c(Cl)c1Cl`, the activity change, negative = inhibition was inactive: -3.08%.

As for `COCCCn1c(SCC(=O)NCc2ccco2)nc2sc3c(c2c1=O)CCC3`, the activity change, negative = inhibition is inactive: -0.648%.

Consider `COCCCNC(=O)c1ccc2c(c1)CCN2S(C)(=O)=O`, for which the activity change, negative = inhibition was inactive: 3.39%.

With `Cc1cccc(NC(=O)C2CCN(S(=O)(=O)c3cccc4nsnc34)CC2)n1`, the activity change, negative = inhibition is inactive: 1.1%.

As for `CCCn1nnnc1SCC(=O)NNC(=O)c1ccco1`, the activity change, negative = inhibition is inactive: 2.08%.

On to `S=c1[nH]nc(COc2ccccc2)n1/N=C/c1ccccn1`, for which the activity change, negative = inhibition was inactive: 2.51%.

Consider `CCOc1ccc(-c2nc(CSCC(=O)NC3CCCc4ccccc43)c(C)o2)cc1` (stereo not given), for which the activity change, negative = inhibition is inactive: -2.21%.

Regarding `COC(=O)CNS(=O)(=O)c1ccc(C)cc1`, the activity change, negative = inhibition was inactive: 2.35%.

On to `CN(C(=O)c1ccccn1)c1nnc(-c2ccccn2)s1`, for which the activity change, negative = inhibition is inactive: -3.27%.

For `O=C(/C=C/c1cc([N+](=O)[O-])ccc1OC(F)F)Nc1ccc(OC(F)F)cc1`, the activity change, negative = inhibition is inactive: 1.27%.
